# Values of other authors, collected in patent US20050186271A1, “Process for dispersing a fluid in a mass of solid particles” (priority 2004, published 2005).
# Structures can show the parent of a compound that is named as a salt.
smiles,measurement,value
CN(C)CCOC(c1ccccc1)c1ccccc1 [Diphenhydramine HCl],Amount that dissolves in 1 mL water,1 g
